The numbers were not newly measured in patent US10441577B2, “Medicament for treatment of liver cancer” (HELMHOLTZ ZENTRUM FUER INFEKTIONSFORSCHUNG, priority 2011, dated 2019), which cites them from elsewhere.

Protein sequences, listed by entry. Tags and fused reporters are not part of them.
UniProt Q16539, whole entry: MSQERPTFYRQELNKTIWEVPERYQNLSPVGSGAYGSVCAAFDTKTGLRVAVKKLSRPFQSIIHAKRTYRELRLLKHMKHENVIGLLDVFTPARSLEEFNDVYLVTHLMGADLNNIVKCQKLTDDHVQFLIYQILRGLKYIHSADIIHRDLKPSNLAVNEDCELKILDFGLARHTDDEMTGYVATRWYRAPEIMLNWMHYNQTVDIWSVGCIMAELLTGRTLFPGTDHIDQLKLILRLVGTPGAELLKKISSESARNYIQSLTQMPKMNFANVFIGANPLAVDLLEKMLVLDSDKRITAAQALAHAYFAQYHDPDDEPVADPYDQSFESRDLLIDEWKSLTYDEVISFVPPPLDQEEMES

The structures given here were assigned with low confidence; some may be wrong.

This data set deals with Mapk14 (Homo sapiens, UniProt Q16539). The following applies: read-out: IC50 for Mapk14; cited from earlier work.

For `CN(C)C(=O)C(=O)c1cn(C)c2cc(Cl)c(C(=O)N3CCC(Cc4ccc(F)cc4)CC3)cc12` [SX 011], the IC50 (usually the concentration that inhibits the measured activity by half) is 9 nM.
